This is an account of results in paper PMC12858401.

Protein sequences, listed by entry. Tags and fused reporters are not part of them. Residues count along the entry.
UniProt P62330: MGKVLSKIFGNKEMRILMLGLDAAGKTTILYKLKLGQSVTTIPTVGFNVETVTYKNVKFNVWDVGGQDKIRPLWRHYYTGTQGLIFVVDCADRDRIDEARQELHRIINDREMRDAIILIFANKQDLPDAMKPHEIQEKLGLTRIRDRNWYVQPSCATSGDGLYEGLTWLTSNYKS
UniProt P16070, residues 21-742: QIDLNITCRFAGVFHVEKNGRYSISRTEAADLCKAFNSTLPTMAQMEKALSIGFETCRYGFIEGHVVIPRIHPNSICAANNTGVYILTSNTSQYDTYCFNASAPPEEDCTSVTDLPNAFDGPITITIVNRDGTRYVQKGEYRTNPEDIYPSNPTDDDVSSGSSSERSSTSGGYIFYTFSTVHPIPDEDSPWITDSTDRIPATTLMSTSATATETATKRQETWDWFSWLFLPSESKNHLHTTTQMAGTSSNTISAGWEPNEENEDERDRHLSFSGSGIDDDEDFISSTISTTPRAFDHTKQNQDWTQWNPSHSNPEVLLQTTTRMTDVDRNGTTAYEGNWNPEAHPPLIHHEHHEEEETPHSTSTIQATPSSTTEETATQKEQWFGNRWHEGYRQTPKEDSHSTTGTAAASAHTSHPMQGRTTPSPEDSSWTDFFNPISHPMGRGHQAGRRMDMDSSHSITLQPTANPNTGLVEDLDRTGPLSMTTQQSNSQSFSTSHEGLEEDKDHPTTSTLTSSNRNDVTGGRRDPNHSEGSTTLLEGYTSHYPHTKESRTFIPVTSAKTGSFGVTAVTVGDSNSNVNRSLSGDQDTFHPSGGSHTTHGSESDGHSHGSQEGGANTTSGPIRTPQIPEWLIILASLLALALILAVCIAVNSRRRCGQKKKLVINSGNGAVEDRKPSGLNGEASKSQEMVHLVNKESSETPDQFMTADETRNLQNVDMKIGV

These are yes or no findings as the source states them, for the method shown. In cells and extracts the contact can be indirect. Here binding means that the protein was enriched with, or labelled near, the bait; the list need not be complete.

Test [1] deals with Flag–EGFR (full-length EGFR with an extracellular N-terminal Flag tag) (UniProt P00533). In words: proximity labelling; ECD ecto-tag MultiMap: live A549 cells expressing Flag–EGFR, serum-starved, anti-Flag–EY antibody bound at 4 °C; EGF for 5 min or 60 min versus no EGF; aryl-diazirine-biotin, aryl-azide-biotin or phenol-biotin at 100 μM, 2 min blue light at 4 °C; streptavidin enrichment and LC–MS/MS; enrichment normalised to EGFR.

The target of test [2] is EGFR–HaloTag (Flag–EGFR–HaloTag; full-length EGFR with an intracellular C-terminal HaloTag) (UniProt P00533). The experiment in a line: proximity labelling; ICD ecto-tag MultiMap: live A549 cells expressing EGFR–HaloTag, serum-starved, EY–HTL anchored and washed out; with versus without EGFR–HaloTag, and EGF for 5 min or 60 min versus no EGF; three biotin photoprobes at 100 μM, 2 min blue light at 4 °C; streptavidin enrichment and LC–MS/MS.

Test [3] shares this target. The experiment in a line: proximity labelling; ICD ecto-tag MultiMap with EY–HTL on EGFR–HaloTag in A549 cells; biotin immunoprecipitate (streptavidin beads) read by western blot; EGF for 5, 10, 30 and 60 min. Background: A western blot detects proteins with antibodies after separation by electrophoresis.

Turning to “ARF6, an ADP-ribosylation factor (from UniProt P62330 1-175)”, the binding entry in test [1], in test [2] and in test [3] was “binds” in each case.

As for CD44 (from UniProt P16070 21-742), the binding entry in test [1], in test [2] and in test [3] was “binds” in each case.

B1: DNM1 (protein, UniProt Q05193 1-864)
chain: MGNRGMEDLIPLVNRLQDAFSAIGQNADLDLPQIAVVGGQSAGKSSVLENFVGRDFLPRGSGIVTRRPLVLQLVNATTEYAEFLHCKGKKFTDFEEVRLEIEAETDRVTGTNKGISPVPINLRVYSPHVLNLTLVDLPGMTKVPVGDQPPDIEFQIRDMLMQFVTKENCLILAVSPANSDLANSDALKVAKEVDPQGQRTIGVITKLDLMDEGTDARDVLENKLLPLRRGYIGVVNRSQKDIDGKKDITAALAAERKFFLSHPSYRHLADRMGTPYLQKVLNQQLTNHIRDTLPGLRNKLQSQLLSIEKEVEEYKNFRPDDPARKTKALLQMVQQFAVDFEKRIEGSGDQIDTYELSGGARINRIFHERFPFELVKMEFDEKELRREISYAIKNIHGIRTGLFTPDMAFETIVKKQVKKIREPCLKCVDMVISELISTVRQCTKKLQQYPRLREEMERIVTTHIREREGRTKEQVMLLIDIELAYMNTNHEDFIGFANAQQRSNQMNKKKTSGNQDEILVIRKGWLTINNIGIMKGGSKEYWFVLTAENLSWYKDDEEKEKKYMLSVDNLKLRDVEKGFMSSKHIFALFNTEQRNVYKDYRQLELACETQEEVDSWKASFLRAGVYPERVGDKEKASETEENGSDSFMHSMDPQLERQVETIRNLVDSYMAIVNKTVRDLMPKTIMHLMINNTKEFIFSELLANLYSCGDQNTLMEESAEQAQRRDEMLRMYHALKEALSIIGDINTTTVSTPMPPPVDDSWLQVQSVPAGRRSPTSSPTPQRRAPAVPPARPGSRGPAPGPPPAGSALGGAPPVPSRPGASPDPFGPPPQVPSRPNRAPPGVPSRSGQASPSRPESPRPPFDL
On to B1, for which the binding result in test [1] and in test [3] was “binds” throughout.
